Assays:
OVX rats [1] = assay: Weight ratio of bone ash and calcium content of fifth vertebra; assay type: in vivo, Wistar rats; conditions: % of dry weight, oral, alendronate 2.5 mg/kg-body weight per day, 13 weeks
Method: (§1) Female Wistar rats (BioLASCO, Taipei, Taiwan) were used in the following experiments. In an experiment group, the rats were anesthetized with 40 mg/kg-body weight of pentobarbital sodium, and ovaries in both sides of the dorsum of the rats were removed to induce osteoporosis, and a decrease in estrogen of the postmenopausal female rats was observed. The rats of which ovaries were removed (i.e., ovariectomized rat) are represented as “OVX rats” hereinafter. In the control group (i.e., a sham group), the skin and muscle on the ovary positions at both sides of the dorsum of the rats were incised and then sutured, while the ovaries were not removed.
(§2) After one week from the surgery, the control group was administrated water orally every day. In the experiment group, the OVX rats were separated into five groups, and were orally administrated with the Flemingia macrophylla extract (0, 50, 250 or 500 mg/kg-body weight, calculated as the dry weight of the extract) or 2.5 mg/kg-body weight of alendronate (an anti-osteoporosis drug as a positive control, Sigma-Aldrich, St. Louis, Mo., USA) per day for 13 weeks. During the administration, the body weight of each rat was measured once a week until the last day of the administration. Distilled water was added into the extract to form a suspension, and the rats were administrated orally with 1 ml/100 g-body weight of the suspension. […]

OVX rats [2] = assay: Density and content of minerals in tibiae (dual-energy X-ray absorptiometer); assay type: in vivo, Wistar rats; conditions: oral, alendronate 2.5 mg/kg-body weight per day, 13 weeks
Method: as §1, §2

Compound: NCCCC(O)(P(=O)(O)O)P(=O)(O)O [alendronate]
- the weight ratio of bone ash (OVX rats [1]): 62.1 ± 1.5 %
- mineral density (OVX rats [2]): 0.14 ± 0.01 g/mL

From patent US20110082197A1, “Method for inhibiting formation and/or activation of osteoclasts using flemingia macrophylla extract or lespedeza flavanone A” (CHINA MEDICAL UNIVERSITY, priority 2009, published 2011)
